PubChem BioAssay AID1259254, NCATS – 2017
Shown is a random part of about 59,000 reagents tested. About 1,550 of all reagents (2.6%) were called active. 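G2 share is only a proxy for re-replication; each gene was hit by three separate siRNAs, and active genes were retested.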 Raw values vary from plate to plate and are shown uncorrected. A number with no mark means an inactive call. The numbers tell different reagents against one gene apart. Reagent sequences are not shown. Not stated in the record: the amount of reagent.

Purpose: 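Genome-wide screen for genes that prevent DNA re-replication in cancer cells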 (primary screen)
Cell system: human HCT116 colorectal cancer cells
Knock-down reagent: single siRNA against human genes
Duration: 3 days
Measurement: 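Nuclei stained with Hoechst and imaged; cell-cycle phase assigned by DNA content; G2 share scaled per plate, non-targeting siRNA 0%, GMNN siRNA 100%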
Reading the numbers: G2 robust z-score and G2 cells, % of GMNN control: higher = more G2 cells, more excess DNA replication; raw share of cells in G2: higher = larger share of cells with G2 DNA content
Hit rule: 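An siRNA counts as active if its G2 robust z-score lies at least 5 MADs above the screen median; here such calls match roughly 38% of GMNN control or more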

no.	Target gene	reagent	G2 robust z-score	G2 cells, % of GMNN control	raw share of cells in G2 (%)
1	PDCD4	1	0.134	3.91	7.94
2	PDCD4	2	-1.36	-6.57	2
3	PDCD4	3	1.64	14.5	8.73
4	COLCA1	1	3.92	30.5	14.9
5	COLCA1	2	0.847	8.93	7.06
6	COLCA1	3	0.311	5.16	6.93
7	RANBP9	1	-0.162	1.83	5.89
8	RANBP9	2	-0.601	-1.26	2.77
9	RANBP9	3	0.633	7.42	7.76
10	ANPEP	1	0.252	4.74	7.21
11	ANPEP	2	-0.674	-1.77	4.28
12	ANPEP	3	-0.205	1.52	4.48
13	DRG2	1	2.35	19.5	10.8
14	DRG2	2	1.28	12	9.36
15	DRG2	3	4.67	35.8	17.7
16	WDR70	1	1.76	15.3	10.4
17	WDR70	2	-0.902	-3.38	2.74
18	WDR70	3	0.128	3.87	4.37
19	STAU1	1	1.1	10.7	9.29
20	STAU1	2	-0.959	-3.78	3.25
21	STAU1	3	-0.657	-1.66	3.41
22	HNRNPLL	1	-1.02	-4.17	3.73
23	HNRNPLL	2	0.753	8.27	8.51
24	HNRNPLL	3	0.915	9.41	8.03
25	CAPN10	1	3.88	30.3	16.1
26	CAPN10	2	1.29	12.1	9.18
27	CAPN10	3	-0.38	0.293	4.02
28	PNMA6B	1	0.825	8.77	6.34
29	PNMA6B	2	0.233	4.61	4.88
30	PNMA6B	3	-1.07	-4.54	2.55

A few values from the entries so far:
Under “G2 cells, % of GMNN control”, STAU1 #3 is entered as -1.66
For “G2 robust z-score”, DRG2 #3 shows 4.67
